From paper doi:10.1101/2024.06.07.596575
Results are given in words; binding and its absence hold for the method and conditions named. For some of these results: Binding seen in cells or lysates may run through a third protein. Some binding calls cover weakened binding; strength is not graded here. For some of these results: Tags and fused reporters may be left off the sequences shown. Each block holds one molecule with its values, some of them ahead of it.

By UniProt entry, the sequences of proteins in these tests, tags left out. Residues count along the entry.
UniProt P02649, residues 19-317: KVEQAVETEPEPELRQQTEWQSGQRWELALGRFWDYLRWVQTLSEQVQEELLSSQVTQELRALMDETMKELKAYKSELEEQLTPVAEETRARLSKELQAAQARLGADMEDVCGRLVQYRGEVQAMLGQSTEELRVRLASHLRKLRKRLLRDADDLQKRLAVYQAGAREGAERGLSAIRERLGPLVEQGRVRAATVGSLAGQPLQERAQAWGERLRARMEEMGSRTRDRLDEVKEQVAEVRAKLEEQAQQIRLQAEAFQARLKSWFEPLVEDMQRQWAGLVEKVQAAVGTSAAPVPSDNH

Key:
GFP11-mCLCC1 (mouse) = target: T1, GFP11-mCLCC1 (mouse) (UniProt Q99LI2); experiment: split reporter
T1 sequence: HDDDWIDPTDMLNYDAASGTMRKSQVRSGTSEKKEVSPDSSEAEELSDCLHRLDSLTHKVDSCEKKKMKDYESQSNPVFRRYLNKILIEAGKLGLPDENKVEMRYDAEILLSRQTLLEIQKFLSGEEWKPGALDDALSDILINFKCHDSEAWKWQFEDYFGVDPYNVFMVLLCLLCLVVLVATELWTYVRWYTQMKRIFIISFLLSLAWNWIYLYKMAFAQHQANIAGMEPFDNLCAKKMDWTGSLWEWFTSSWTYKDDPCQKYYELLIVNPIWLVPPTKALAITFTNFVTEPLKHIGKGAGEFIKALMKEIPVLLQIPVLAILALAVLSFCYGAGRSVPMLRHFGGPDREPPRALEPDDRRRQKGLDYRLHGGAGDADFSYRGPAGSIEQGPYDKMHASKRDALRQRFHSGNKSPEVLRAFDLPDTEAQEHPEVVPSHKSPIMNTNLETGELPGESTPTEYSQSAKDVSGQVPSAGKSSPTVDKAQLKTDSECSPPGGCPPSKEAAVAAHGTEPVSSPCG

twin-StrepTagII-TMEM41B = target: T2, twin-StrepTagII-TMEM41B (UniProt Q5BJD5); experiment: tandem affinity purification
T2 sequence: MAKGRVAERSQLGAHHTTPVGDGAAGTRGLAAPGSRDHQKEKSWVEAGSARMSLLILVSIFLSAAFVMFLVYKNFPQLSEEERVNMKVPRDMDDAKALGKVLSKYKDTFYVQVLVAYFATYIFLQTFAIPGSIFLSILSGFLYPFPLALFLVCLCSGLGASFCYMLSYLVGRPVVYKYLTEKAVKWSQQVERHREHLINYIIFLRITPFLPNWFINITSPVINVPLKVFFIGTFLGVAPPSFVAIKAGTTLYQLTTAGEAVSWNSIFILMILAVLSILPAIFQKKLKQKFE

[1] = target: T3, endogenous TMEM41B (Huh7 cells) (human (endogenous in Huh7)) (UniProt Q5BJD5); experiment: co-IP
T3 sequence: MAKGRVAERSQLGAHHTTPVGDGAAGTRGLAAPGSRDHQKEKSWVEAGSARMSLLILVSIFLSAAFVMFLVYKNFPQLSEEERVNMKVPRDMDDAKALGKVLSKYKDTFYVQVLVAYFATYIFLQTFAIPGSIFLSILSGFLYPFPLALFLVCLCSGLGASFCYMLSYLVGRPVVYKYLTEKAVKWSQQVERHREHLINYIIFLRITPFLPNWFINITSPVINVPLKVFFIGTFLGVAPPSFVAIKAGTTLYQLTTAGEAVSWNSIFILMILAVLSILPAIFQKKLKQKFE

[2] = target: endogenous CLCC1 (mouse liver membranes and geLDs) (mouse (endogenous in liver)) (UniProt Q99LI2); experiment: native gel or EMSA

Molecule: ApoE-GFP1-10 (from UniProt P02649 19-317)
binding (GFP11-mCLCC1 (mouse)): binds

B1: CLCC1-FLAG (chloride channel CLIC like 1) (protein, UniProt Q96S66 19-551)
chain: HDDDWIDPTDMLNYDAASGTMRKSQAKYGISGEKDVSPDLSCADEISECYHKLDSLTYKIDECEKKKREDYESQSNPVFRRYLNKILIEAGKLGLPDENKGDMHYDAEIILKRETLLEIQKFLNGEDWKPGALDDALSDILINFKFHDFETWKWRFEDSFGVDPYNVLMVLLCLLCIVVLVATELWTYVRWYTQLRRVLIISFLFSLGWNWMYLYKLAFAQHQAEVAKMEPLNNVCAKKMDWTGSIWEWFRSSWTYKDDPCQKYYELLLVNPIWLVPPTKALAVTFTTFVTEPLKHIGKGTGEFIKALMKEIPALLHLPVLIIMALAILSFCYGAGKSVHVLRHIGGPESEPPQALRPRDRRRQEEIDYRPDGGAGDADFHYRGQMGPTEQGPYAKTYEGRREILRERDVDLRFQTGNKSPEVLRAFDVPDAEAREHPTVVPSHKSPVLDTKPKETGGILGEGTPKESSTESSQSAKPVSGQDTSGNTEGSPAAEKAQLKSEAAGSPDQGSTYSPARGVAGPRGQDPVSSPCG
binding (twin-StrepTagII-TMEM41B): binds

Further lines, results first:

binding [1]: binds
B2: endogenous CLCC1 (Huh7 cells) (protein, UniProt Q96S66 19-551)
chain: HDDDWIDPTDMLNYDAASGTMRKSQAKYGISGEKDVSPDLSCADEISECYHKLDSLTYKIDECEKKKREDYESQSNPVFRRYLNKILIEAGKLGLPDENKGDMHYDAEIILKRETLLEIQKFLNGEDWKPGALDDALSDILINFKFHDFETWKWRFEDSFGVDPYNVLMVLLCLLCIVVLVATELWTYVRWYTQLRRVLIISFLFSLGWNWMYLYKLAFAQHQAEVAKMEPLNNVCAKKMDWTGSIWEWFRSSWTYKDDPCQKYYELLLVNPIWLVPPTKALAVTFTTFVTEPLKHIGKGTGEFIKALMKEIPALLHLPVLIIMALAILSFCYGAGKSVHVLRHIGGPESEPPQALRPRDRRRQEEIDYRPDGGAGDADFHYRGQMGPTEQGPYAKTYEGRREILRERDVDLRFQTGNKSPEVLRAFDVPDAEAREHPTVVPSHKSPVLDTKPKETGGILGEGTPKESSTESSQSAKPVSGQDTSGNTEGSPAAEKAQLKSEAAGSPDQGSTYSPARGVAGPRGQDPVSSPCG

binding [2]: binds
B3: endogenous CLCC1 (mouse liver membranes and geLDs) (protein, UniProt Q99LI2 19-539)
chain: HDDDWIDPTDMLNYDAASGTMRKSQVRSGTSEKKEVSPDSSEAEELSDCLHRLDSLTHKVDSCEKKKMKDYESQSNPVFRRYLNKILIEAGKLGLPDENKVEMRYDAEILLSRQTLLEIQKFLSGEEWKPGALDDALSDILINFKCHDSEAWKWQFEDYFGVDPYNVFMVLLCLLCLVVLVATELWTYVRWYTQMKRIFIISFLLSLAWNWIYLYKMAFAQHQANIAGMEPFDNLCAKKMDWTGSLWEWFTSSWTYKDDPCQKYYELLIVNPIWLVPPTKALAITFTNFVTEPLKHIGKGAGEFIKALMKEIPVLLQIPVLAILALAVLSFCYGAGRSVPMLRHFGGPDREPPRALEPDDRRRQKGLDYRLHGGAGDADFSYRGPAGSIEQGPYDKMHASKRDALRQRFHSGNKSPEVLRAFDLPDTEAQEHPEVVPSHKSPIMNTNLETGELPGESTPTEYSQSAKDVSGQVPSAGKSSPTVDKAQLKTDSECSPPGGCPPSKEAAVAAHGTEPVSSPCG
